Measured values taken from PMC7081254.
These are yes or no findings as the source states them, for the method shown. In cells and extracts the contact can be indirect. Some binding calls cover weakened binding; strength is not graded here. Tags and fused reporters may be left off the sequences shown. One block for each binder: values may come before it.

The chains behind the UniProt entries cited, without tags or fusion partners. Where a name states a change or a piece, a line headed by the entry shows the natural chain unless it says otherwise.
UniProt P19785: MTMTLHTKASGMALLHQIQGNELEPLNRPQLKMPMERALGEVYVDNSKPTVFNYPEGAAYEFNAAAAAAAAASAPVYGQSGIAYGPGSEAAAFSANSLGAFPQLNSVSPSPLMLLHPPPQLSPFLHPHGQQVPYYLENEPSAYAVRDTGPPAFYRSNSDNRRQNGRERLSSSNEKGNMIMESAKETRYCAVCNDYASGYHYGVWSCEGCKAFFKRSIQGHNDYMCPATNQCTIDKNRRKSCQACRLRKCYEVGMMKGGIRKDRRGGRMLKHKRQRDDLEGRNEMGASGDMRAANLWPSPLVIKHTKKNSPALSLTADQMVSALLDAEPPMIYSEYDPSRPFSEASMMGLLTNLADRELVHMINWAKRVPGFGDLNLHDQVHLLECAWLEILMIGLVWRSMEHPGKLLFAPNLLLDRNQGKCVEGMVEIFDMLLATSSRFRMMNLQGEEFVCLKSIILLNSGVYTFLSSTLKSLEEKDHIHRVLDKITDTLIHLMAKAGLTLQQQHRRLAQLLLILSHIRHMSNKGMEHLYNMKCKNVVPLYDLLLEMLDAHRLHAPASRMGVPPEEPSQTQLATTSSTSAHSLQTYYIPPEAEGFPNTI

Assays:
[1] = molecular target: EYFP-tagged ERα S216D (mouse) (UniProt P19785); assay: co-IP; FLAG-RORα WT or S100D co-expressed with EYFP-ERα WT or S216D and with CAR WT in Huh7 cells; whole cell lysates precipitated with αGFP-resin; blot with αGFP or αFLAG
[2] = molecular target: EYFP-tagged ERα S216D (mouse) (UniProt P19785); assay: co-IP; Flag-CAR co-expressed with EYFP-ERα forms in Huh7 cells with 10 nM 17β-estradiol for 24 h; whole cell lysates in IP buffer (20 mM Tris-HCl pH 7.5, 250 mM NaCl, 1% Triton-X 100, 10% glycerol); anti-GFP agarose, 4 °C overnight; blot with anti-FLAG

- binding [1]: binds
B1: FLAG-tagged RORα S100D (protein, UniProt P35398 1-523)
chain: MESAPAAPDPAASEPGSSGADAAAGSRETPLNQESARKSEPPAPVRRQSYSSTSRGISVTKKTHTSQIEIIPCKICGDKSSGIHYGVITCEGCKGFFRRDQQSNATYSCPRQKNCLIDRTSRNRCQHCRLQKCLAVGMSRDAVKFGRMSKKQRDSLYAEVQKHRMQQQQRDHQQQPGEAEPLTPTYNISANGLTELHDDLSNYIDGHTPEGSKADSAVSSFYLDIQPSPDQSGLDINGIKPEPICDYTPASGFFPYCSFTNGETSPTVSMAELEHLAQNISKSHLETCQYLREELQQITWQTFLQEEIENYQNKQREVMWQLCAIKITEAIQYVVEFAKRIDGFMELCQNDQIVLLKAGSLEVVFIRMCRAFDSQNNTVYFDGKYASPDVFKSLGCEDFISFVFEFGKSLCSMHLTEDEIALFSAFVLMSADRSWLQEKVKIEKLQQKIQLALQHVLQKNHREDGILTKLICKVSTLRALCGRHTEKLMAFKAIYPDIVRLHFPPLYKELFTSEFEPAMQIDG

- binding [2]: binds
B2: Flag-tagged CAR (constitutive active/androstane receptor, NR1I3) (protein, UniProt Q14994 1-352)
chain: MASREDELRNCVVCGDQATGYHFNALTCEGCKGFFRRTVSKSIGPTCPFAGSCEVSKTQRRHCPACRLQKCLDAGMRKDMILSAEALALRRAKQAQRRAQQTPVQLSKEQEELIRTLLGAHTRHMGTMFEQFVQFRPPAHLFIHHQPLPTLAPVLPLVTHFADINTFMVLQVIKFTKDLPVFRSLPIEDQISLLKGAAVEICHIVLNTTFCLQTQNFLCGPLRYTIEDGARVSPTVGFQVEFLELLFHFHGTLRKLQLQEPEYVLLAAMALFSPDRPGVTQRDEIDQLQEEMALTLQSYIKGQQRRPRDRFLYAKLLGLLAELRSINEAYGYQIQHIQGLSAMMPLLQEICS
